According to paper PMC10117657:
These are yes or no findings as the source states them, for the method shown. In cells and extracts the contact can be indirect. Some binding calls cover weakened binding; strength is not graded here. For some of these results: Tags and fused reporters may be left off the sequences shown.

The chains behind the UniProt entries cited, without tags or fusion partners. Residues count along the entry.
UniProt Q8IZJ1, residues 27-945: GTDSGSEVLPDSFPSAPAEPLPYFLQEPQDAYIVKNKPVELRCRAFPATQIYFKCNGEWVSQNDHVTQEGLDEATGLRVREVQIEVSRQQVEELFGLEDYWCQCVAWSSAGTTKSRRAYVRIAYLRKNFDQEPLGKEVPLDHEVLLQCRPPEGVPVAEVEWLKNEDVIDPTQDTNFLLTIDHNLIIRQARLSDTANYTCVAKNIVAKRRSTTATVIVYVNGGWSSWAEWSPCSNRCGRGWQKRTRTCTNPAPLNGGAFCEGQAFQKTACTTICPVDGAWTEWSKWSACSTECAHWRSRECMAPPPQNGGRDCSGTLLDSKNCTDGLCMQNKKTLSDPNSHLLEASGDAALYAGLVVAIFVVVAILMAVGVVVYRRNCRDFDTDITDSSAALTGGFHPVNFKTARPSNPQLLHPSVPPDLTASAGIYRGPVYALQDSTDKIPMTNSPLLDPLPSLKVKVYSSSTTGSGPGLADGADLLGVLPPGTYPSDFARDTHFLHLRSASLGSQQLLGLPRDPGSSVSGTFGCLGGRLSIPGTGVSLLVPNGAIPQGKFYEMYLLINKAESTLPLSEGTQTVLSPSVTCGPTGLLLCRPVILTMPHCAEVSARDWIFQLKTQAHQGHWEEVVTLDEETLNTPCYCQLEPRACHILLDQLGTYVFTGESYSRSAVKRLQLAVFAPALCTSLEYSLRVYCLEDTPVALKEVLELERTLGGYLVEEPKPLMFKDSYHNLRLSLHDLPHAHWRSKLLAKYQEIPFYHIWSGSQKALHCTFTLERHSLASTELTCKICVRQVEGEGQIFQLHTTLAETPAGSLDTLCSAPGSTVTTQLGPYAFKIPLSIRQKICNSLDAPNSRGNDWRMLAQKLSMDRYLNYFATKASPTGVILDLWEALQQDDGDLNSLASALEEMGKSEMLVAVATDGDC

T1: Flag-tagged full-length human FLRT2 (fibronectin leucine-rich transmembrane protein 2) (human) (UniProt O43155)
T1 sequence: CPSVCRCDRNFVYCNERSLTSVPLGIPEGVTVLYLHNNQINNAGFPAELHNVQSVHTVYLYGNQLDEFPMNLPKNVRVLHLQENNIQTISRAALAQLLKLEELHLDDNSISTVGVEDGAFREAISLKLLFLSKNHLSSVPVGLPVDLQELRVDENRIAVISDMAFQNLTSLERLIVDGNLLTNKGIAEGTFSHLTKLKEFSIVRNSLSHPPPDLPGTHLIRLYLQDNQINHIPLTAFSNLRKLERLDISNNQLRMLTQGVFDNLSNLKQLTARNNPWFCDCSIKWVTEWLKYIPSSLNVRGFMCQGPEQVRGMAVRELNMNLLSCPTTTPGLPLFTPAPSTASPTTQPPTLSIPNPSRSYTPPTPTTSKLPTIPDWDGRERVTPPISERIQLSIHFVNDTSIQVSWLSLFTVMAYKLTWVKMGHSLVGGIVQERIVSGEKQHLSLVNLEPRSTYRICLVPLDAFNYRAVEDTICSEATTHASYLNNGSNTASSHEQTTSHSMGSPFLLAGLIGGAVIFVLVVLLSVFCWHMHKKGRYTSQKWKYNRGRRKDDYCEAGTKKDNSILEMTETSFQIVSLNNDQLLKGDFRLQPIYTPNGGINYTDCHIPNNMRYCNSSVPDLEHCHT

T2: Flag-tagged human FLRT2 intracellular domain (hFLRT2-ICD, aa563-aa660) (human) (UniProt O43155)
T2 sequence: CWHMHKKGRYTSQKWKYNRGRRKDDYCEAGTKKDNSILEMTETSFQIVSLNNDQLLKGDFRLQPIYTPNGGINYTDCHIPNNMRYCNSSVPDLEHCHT

T3: Flag-tagged human FLRT2 extracellular domain (hFLRT2-ECD, aa1-aa541) (human) (UniProt O43155)
T3 sequence: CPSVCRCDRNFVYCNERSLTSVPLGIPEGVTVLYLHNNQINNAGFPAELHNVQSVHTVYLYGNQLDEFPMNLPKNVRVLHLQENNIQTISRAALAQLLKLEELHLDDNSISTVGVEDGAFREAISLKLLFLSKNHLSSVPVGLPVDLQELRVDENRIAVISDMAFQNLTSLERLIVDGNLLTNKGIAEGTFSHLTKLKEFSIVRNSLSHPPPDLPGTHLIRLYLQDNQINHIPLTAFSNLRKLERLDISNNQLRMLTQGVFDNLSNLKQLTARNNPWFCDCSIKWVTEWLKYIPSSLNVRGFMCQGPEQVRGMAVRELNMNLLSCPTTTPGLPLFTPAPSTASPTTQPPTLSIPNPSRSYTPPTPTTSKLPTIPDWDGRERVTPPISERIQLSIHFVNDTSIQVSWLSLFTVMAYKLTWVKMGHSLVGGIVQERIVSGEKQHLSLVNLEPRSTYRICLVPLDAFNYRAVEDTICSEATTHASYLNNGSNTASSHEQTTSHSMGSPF

B1: endogenous FLRT2 of THP-1 cells (protein, UniProt O43155 36-660)
chain: T1 sequence

Legend:
[1] = biological target: T1, Flag-tagged full-length human FLRT2 (fibronectin leucine-rich transmembrane protein 2) (human); assay: co-IP; Myc-hUNC5B and/or Flag-hFLRT2 transfected into HEK293T cells; precipitated with anti-Flag, blotted for Myc and Flag; lysis in 25 mM HEPES pH 7.4, 150 mM NaCl, 0.5% Triton X-100; washes with 450 mM NaCl
[2] = biological target: T2, Flag-tagged human FLRT2 intracellular domain (hFLRT2-ICD, aa563-aa660) (human); assay: co-IP; Flag-tagged hFLRT2-ECD or hFLRT2-ICD with Myc-tagged hUNC5B; cell line not stated for this panel
[3] = biological target: T3, Flag-tagged human FLRT2 extracellular domain (hFLRT2-ECD, aa1-aa541) (human); assay: as above
[4] = biological target: endogenous UNC5B of THP-1 cells (human (endogenous in THP-1)) (UniProt Q8IZJ1); assay: co-IP; endogenous proteins; UNC5B immunoprecipitated from PMA-incubated THP-1 cells, blotted for FLRT2 and UNC5B

Row | Molecule | binding [1] | binding [2] | binding [3] | binding [4]
1 | Myc-tagged full-length human UNC5B (Unc-5 netrin receptor B) (from UniProt Q8IZJ1 27-945) | binds | no binding | binds | –
2 | B1 | – | – | – | binds
